Experimental data published in the supplement of paper PMC12823440, “Inhibitors supercharge kinase turnover through native proteolytic circuits” (Nature, 2025).
The list shows a part of the results. The calls rarely recur for the same compound in another form.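 Kinases, fused to nanoluciferase, were expressed in K562 cells; luminescence was measured every 4 h from 2 to 18 h as percent of control (DMSO = 100%, positive control = 0%). A time point is decreased if signal falls significantly (2 sigma). Hits were called by the authors by a rule that is not shown; the count of time points alone does not decide it.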

By UniProt entry, the sequences of proteins in these tests, tags left out. Where a name states a change or a piece, a line headed by the entry shows the natural chain unless it says otherwise.
UniProt Q8IWU2: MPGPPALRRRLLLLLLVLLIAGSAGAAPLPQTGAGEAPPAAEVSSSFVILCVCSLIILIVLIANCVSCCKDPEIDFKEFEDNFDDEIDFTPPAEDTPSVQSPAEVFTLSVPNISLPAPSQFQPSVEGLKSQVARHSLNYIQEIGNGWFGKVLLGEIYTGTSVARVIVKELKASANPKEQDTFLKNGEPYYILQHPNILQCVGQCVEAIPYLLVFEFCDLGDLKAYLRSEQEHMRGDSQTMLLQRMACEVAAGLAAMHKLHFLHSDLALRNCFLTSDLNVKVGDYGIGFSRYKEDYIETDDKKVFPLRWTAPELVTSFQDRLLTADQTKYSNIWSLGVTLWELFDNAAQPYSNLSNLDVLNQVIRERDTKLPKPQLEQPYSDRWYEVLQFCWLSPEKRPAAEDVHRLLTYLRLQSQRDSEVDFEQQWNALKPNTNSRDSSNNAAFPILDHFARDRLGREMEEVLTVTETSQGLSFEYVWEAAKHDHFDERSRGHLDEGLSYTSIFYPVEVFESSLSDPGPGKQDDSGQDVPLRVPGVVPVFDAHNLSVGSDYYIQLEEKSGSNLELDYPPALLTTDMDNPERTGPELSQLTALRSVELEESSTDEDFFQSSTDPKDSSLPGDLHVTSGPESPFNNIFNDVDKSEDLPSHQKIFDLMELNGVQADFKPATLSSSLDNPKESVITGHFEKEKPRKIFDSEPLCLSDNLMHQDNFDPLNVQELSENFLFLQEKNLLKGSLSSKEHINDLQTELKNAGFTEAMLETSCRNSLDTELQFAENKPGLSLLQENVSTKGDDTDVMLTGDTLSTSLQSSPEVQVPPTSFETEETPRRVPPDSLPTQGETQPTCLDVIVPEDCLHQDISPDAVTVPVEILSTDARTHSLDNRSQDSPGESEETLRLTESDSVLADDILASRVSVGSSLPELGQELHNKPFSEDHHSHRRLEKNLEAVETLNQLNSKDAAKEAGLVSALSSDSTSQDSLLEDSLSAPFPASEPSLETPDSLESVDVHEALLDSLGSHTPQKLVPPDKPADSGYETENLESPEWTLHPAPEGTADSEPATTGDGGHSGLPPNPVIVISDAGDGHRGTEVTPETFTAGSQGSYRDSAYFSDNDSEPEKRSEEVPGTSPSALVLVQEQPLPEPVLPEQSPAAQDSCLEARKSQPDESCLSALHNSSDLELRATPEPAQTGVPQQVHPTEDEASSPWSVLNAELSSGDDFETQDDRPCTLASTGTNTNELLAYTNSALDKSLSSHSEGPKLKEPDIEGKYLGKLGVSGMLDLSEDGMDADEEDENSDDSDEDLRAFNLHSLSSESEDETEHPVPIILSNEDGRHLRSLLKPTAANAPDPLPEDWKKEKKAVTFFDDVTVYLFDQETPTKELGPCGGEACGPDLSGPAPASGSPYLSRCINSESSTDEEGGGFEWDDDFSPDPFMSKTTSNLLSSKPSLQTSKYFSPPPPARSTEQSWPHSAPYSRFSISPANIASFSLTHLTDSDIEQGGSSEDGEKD

Each compound was assayed against LMTK2 (UniProt Q8IWU2) (assay: number of time points (of 5) at which kinase-Nluc abundance scored as decreased, DMSO-normalised (count); higher = more persistent destabilization). Settings: K562; 2-18 h.
For `O=Nc1c(-c2c(O)[nH]c3cc(Br)ccc23)[nH]c2ccccc12` [GSK 3 Inhibitor IX] (2.5 µM), the “number of time points” value was 0.
With `Cn1c2cc([S+](C)[O-])sc2c2cnn(Cc3cccc(N)c3)c(=O)c21` (stereo not drawn) (2.5 µM) the “number of time points” value was 0.
For `Cc1cc(-n2c(=O)ccc3c[nH]c4nccc-4c32)ccc1F` (10 µM), the “number of time points” value was 0.
With `CCCn1/c(=N/C(=O)c2cccc(C(N)=O)c2)[nH]c2ccccc21` [Takinib] (10 µM) the “number of time points” value was 0.
`CO[C@H]1C[C@@H]2CC[C@@H](C)[C@@](O)(O2)C(=O)C(=O)N2CCCC[C@H]2C(=O)O[C@H]([C@H](C)C[C@@H]2CC[C@@H](OCCO)[C@H](OC)C2)CC(=O)[C@H](C)/C=C(\C)[C@@H](O)[C@@H](OC)C(=O)[C@H](C)C[C@H](C)/C=C/C=C/C=C/1C` [Everolimus] (10 µM) was tested, and the “number of time points” value was 0.
For `Cc1cccc(-c2[nH]ncc2-c2ccnc3ccccc23)n1` (10 µM), the “number of time points” value was 0.
In the case of `CC1(N)CCN(c2cccnc2NC(=O)c2nc(-c3ncccc3C(F)(F)F)cnc2N)CC1` [Darovasertib] (10 µM), the “number of time points” value is reported as 0.
In the case of `COc1cc2c(cc1Nc1ncc(C(N)=O)c(Nc3c(F)cccc3C(F)(F)F)n1)CN(C)CC2` (2.5 µM), the “number of time points” value is reported as 0.
In the case of `COc1cc2ncnc(Nc3ccc(O)c(Br)c3)c2cc1OC` (10 µM), the “number of time points” value is reported as 0.
For `Nc1nc2c(nc(Br)n2[C@@H]2O[C@@H]3COP(=O)(O)O[C@H]3[C@H]2O)c(=O)[nH]1` [8-Bromo-cGMP (sodium)] (10 µM), the “number of time points” value was 0.
For `O=c1c2c([nH]n1-c1nc3ccccc3s1)CCCC2` (10 µM), the “number of time points” value was 0.
`COC(=O)Nc1ccc(-c2nc(N3CCOCC3)c3cnn(C4CCN(Cc5cccnc5)CC4)c3n2)cc1` (10 µM) was tested, and the “number of time points” value was 0.
`N[C@@H]1CCCN(c2c(/C=C3\SC(=O)NC3=O)cccc2-c2ccccc2)C1` (10 µM) was tested, and the “number of time points” value was 0.
`Nc1nc(N)c2nc(-c3cccc(O)c3)c(-c3cccc(O)c3)nc2n1` (10 µM) was tested, and the “number of time points” value was 0.
`Cn1ncc(NC(=O)c2nc(-c3c(F)cccc3F)sc2N)c1N1CC[C@@H](N)[C@H](F)CC1` (10 µM) was tested, and the “number of time points” value was 0.
For `C=C1C(=O)[C@@]23[C@H](O)C[C@@H]4C(C)(C)C(=O)CC[C@@]4(C)[C@@H]2CC[C@@H]1[C@H]3O` [Glaucocalyxin A] (2.5 µM), the “number of time points” value was 0.
In the case of `O=C(NCCO)c1cc(C(=O)NCCO)cc(C(=O)NCCO)c1` (10 µM), the “number of time points” value is reported as 0.
For `CCC(=O)Nc1cccc(Oc2nc(Nc3ccc(N4CCN(C)CC4)cc3OC)ncc2Cl)c1` (10 µM), the “number of time points” value was 0.
For `Cc1nn(C)cc1-c1nc2c(N3CCN(Cc4ccc(Cl)cc4)CC3)c(Cl)cnc2[nH]1` (10 µM), the “number of time points” value was 0.
In the case of `CC(C)Oc1ccc(F)c(-c2cnc(N)c(C(=O)Nc3cnccc3N3CCC[C@@H](C(=O)O)C3)n2)c1` (2 µM), the “number of time points” value is reported as 3.
In the case of `Nc1ncc(C(=O)NC2CN(C(=O)C3CC3)C2)c2ccc(-c3cccc(F)c3)nc12` (2 µM), the “number of time points” value is reported as 0.
`O=C(ON=C1c2ccccc2-c2nc3ccccc3nc21)c1ccco1` (2.5 µM) was tested, and the “number of time points” value was 0.
With `CC(C)=CC[C@@H](O)C1=CC(=O)c2c(O)ccc(O)c2C1=O` [Shikonin] (10 µM) the “number of time points” value was 0.
`COC(=O)Nc1ccc(-c2nc(N3CCOCC3)c3cnn(C4CCN(C(=O)OC)CC4)c3n2)cc1` (10 µM) was tested, and the “number of time points” value was 0.
`CNC(=O)c1ccc2c(c1)ncn2-c1ccc(CC(=O)OC(C)(C)C)cc1` (10 µM) was tested, and the “number of time points” value was 0.
For `O=C1CC[C@H](NC(=O)Cc2ccccc2)C(=O)N1` [Antineoplaston A10] (10 µM), the “number of time points” value was 0.
With `COCCOCCc1c(C)c2cc(OC)c(O)c(C=O)c2oc1=O` (10 µM) the “number of time points” value was 0.
For `Cc1ccc(C(=O)NC2CC2)cc1-n1ncc(C(=O)c2cccc(C#N)c2)c1N` [Acumapimod] (10 µM), the “number of time points” value was 0.
In the case of `O=C(NCCN1CCOCC1)Nc1nc2ccc(Sc3nnc4ccc(-c5ccc(F)cc5)nn34)cc2s1` (10 µM), the “number of time points” value is reported as 0.
`COc1cc(F)ccc1-c1ncnc(Nc2cccc(C[S@](C)(=N)=O)c2)n1` [Atuveciclib] (2.5 µM) was tested, and the “number of time points” value was 3.
With `CCn1c(-c2nonc2N)nc2c(C#CC(C)(C)O)ncc(OC[C@H]3CCCNC3)c21` (10 µM) the “number of time points” value was 0.
`O=c1[nH]ccc2nc(-c3ccc(CN4CCC(c5nc(-c6ccccn6)n[nH]5)CC4)cc3)c(-c3ccccc3)cc12` (10 µM) was tested, and the “number of time points” value was 0.
`COCCOc1ccc2c(c1)ncn2-c1ccc2cccc(N3CCC(N)CC3)c2n1` (10 µM) was tested, and the “number of time points” value was 4.
`CN1CCC(CNc2ccc3ncc(-c4cccc(OC(F)(F)F)c4)n3n2)CC1` (2.5 µM) was tested, and the “number of time points” value was 0.
In the case of `Cc1cc(C(=O)NC(C)(C)C)cc(C#Cc2ccc3c4c(oc3c2)C(C)(C)c2cc(NS(C)(=O)=O)ccc2C4=O)n1` (10 µM), the “number of time points” value is reported as 0.
`CC(O)(C#Cc1ccc2c(c1)N(c1nc(N)ncc1Cl)CC2)c1nccs1` (stereo not drawn) (2.5 µM) was tested, and the “number of time points” value was 0.
In the case of `COc1cc(-c2cc(-c3ccc(N4CCNCC4)cc3)cnc2C)cc(OC)c1OC` (10 µM), the “number of time points” value is reported as 0.
`Cn1c(CNc2cccc(C(=O)NCc3ccccc3C(F)(F)F)c2)nnc1-c1ccncc1` (10 µM) was tested, and the “number of time points” value was 0.
